Record: PubChem BioAssay AID1053208 (Peter MacCallum Cancer Centre, 2014)
Here is a random part of about 17,000 deposited reagents. In the full data, 788 (4.7%) got an active call. 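Calls rest on z-score classes alone; an extra cut-off of viability at most 70% of control was not applied to them.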 Not all columns of the deposit are shown.

- Purpose: 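Synthetic lethal interactions between gene loss and doxorubicin in osteosarcoma cells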 (primary screen)
- System: mouse osteosarcoma cells, early-passage culture from an engineered mouse model of fibroblastic bone tumour
- Knock-down reagent: siRNA pool against mouse genes, 40 nM
- Timing: about 120 h (48 h before drug, then 72 h with drug)
- Treatment: doxorubicin 100 nM for 72 h, roughly 30-40% inhibitory dose
- Measured: 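Viability read as ATP luminescence after 72 h of 100 nM doxorubicin or none, duplicate wells averaged, scaled to non-targeting siRNA, then expressed as robust z-scores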
- Direction: viability z-score with doxorubicin: higher = more viable cells under doxorubicin; viability z-score without drug: higher = more viable cells with knock-down alone
- Call rule: 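a pool counts as active when its viability z-score with doxorubicin is -2 or below and its z-score without drug lies between -2 and 2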

Chia1 | combined z-score class: no change with or without drug; viability z-score with doxorubicin: -1.12; viability z-score without drug: -0.67; outcome: inactive
Emp1 | combined z-score class: high cell count with and without drug; viability z-score with doxorubicin: 2.02; viability z-score without drug: 2.19; outcome: inactive
CPEB4 | combined z-score class: no change with or without drug; viability z-score with doxorubicin: -1.46; viability z-score without drug: -0.17; outcome: inactive
Abca15 | combined z-score class: no change with or without drug; viability z-score with doxorubicin: 0.56; viability z-score without drug: 0.34; outcome: inactive
Plekhg4 | combined z-score class: no change with or without drug; viability z-score with doxorubicin: -0.22; viability z-score without drug: 1.69; outcome: inactive
Col9a3 | combined z-score class: no change with or without drug; viability z-score with doxorubicin: 0.9; viability z-score without drug: 0.17; outcome: inactive
Dnajb6 | combined z-score class: no change with or without drug; viability z-score with doxorubicin: -1.24; viability z-score without drug: 0.84; outcome: inactive
Polr1g | combined z-score class: no change with or without drug; viability z-score with doxorubicin: -0.9; viability z-score without drug: 0.84; outcome: inactive
Inpp5k | combined z-score class: no change with or without drug; viability z-score with doxorubicin: 0.67; viability z-score without drug: -0.51; outcome: inactive
Mrm2 | combined z-score class: no change with or without drug; viability z-score with doxorubicin: 0.9; viability z-score without drug: 0.34; outcome: inactive
Gps2 | combined z-score class: no change with or without drug; viability z-score with doxorubicin: 1.69; viability z-score without drug: 1.35; outcome: inactive
Wac | combined z-score class: no change with or without drug; viability z-score with doxorubicin: 1.01; viability z-score without drug: 1.35; outcome: inactive
Jtb | combined z-score class: no change with or without drug; viability z-score with doxorubicin: -0.45; viability z-score without drug: 0.51; outcome: inactive
Mphosph6 | combined z-score class: no change with or without drug; viability z-score with doxorubicin: 1.69; viability z-score without drug: 0.17; outcome: inactive
Ocm | combined z-score class: no change with or without drug; viability z-score with doxorubicin: 0.79; viability z-score without drug: 0.51; outcome: inactive
Wnt10b | combined z-score class: no change with or without drug; viability z-score with doxorubicin: -0.11; viability z-score without drug: -0.34; outcome: inactive
Irgm2 | combined z-score class: no change with or without drug; viability z-score with doxorubicin: -0.22; viability z-score without drug: -0.84; outcome: inactive
Prrg4 | combined z-score class: no change with or without drug; viability z-score with doxorubicin: 0; viability z-score without drug: 0.84; outcome: inactive
1810018F18Rik | combined z-score class: no change with or without drug; viability z-score with doxorubicin: 1.57; viability z-score without drug: 1.85; outcome: inactive

Laid out differently: results already given.
{"gene": "Emp1", "combined z-score class": "high cell count with and without drug", "viability z-score with doxorubicin": 2.02, "viability z-score without drug": 2.19, "outcome": "inactive"}
{"gene": "CPEB4", "combined z-score class": "no change with or without drug", "viability z-score with doxorubicin": -1.46, "viability z-score without drug": -0.17, "outcome": "inactive"}
